Laboratory results published in patent US20160115200A1, “New Use for JNK Inhibitor Molecules for Treatment of Various Diseases” (XIGEN INFLAMMATION LTD., priority 2013, published 2016).
For at least one compound, name, drawing or mass did not settle the structure.

Tests used:
[1] = system: primary rat lymph-nodes purified T cells; assay: CD3/CD28-induced IL-2 release in primary rat lymph-nodes purified T cells; assay type: cell-based; details: inhibitor 1 h before CD3/CD28 (2 μg/mL), supernatant after 24 h
Experimental: Control rat were sacrificed and lymph-nodes were harvested. T cells further were purified (using magnetic negative selection) and plated into 96-well plates at 200.000 cells/well. Cells were treated with anti-rat CD3 and anti-rat CD28 antibodies (2 μg/mL). JNK inhibitor with SEQ ID NO: 172 was added to the cultures 1 h before CD3/CD28 treatment and IL-2 release was assessed in supernatant 24 h after treatment.
Control animal were sacrificed, lymph nodes (LN) were harvested and kept in complete RPMI medium. LN were smashed with complete RPMI on 70 μm filter using a 5 ml piston. A few drops of media were added to keep strainer wet. Cells were centrifuged for 7 min at 450 g and 4° C. Pellet was resuspended in 5 ml fresh medium. Cells were passed again through cell strainer. An aliquot of cells was counted, while cells were centrifuged again 10 min at 1400 rpm and 4° C. Cells were resupended in MACS buffer (80 μl of MACS buffer per 10^7 cells). 10 μl of anti-rat MHC microbeads were added per 10 million cells, cells were incubated for 15 min at 4°-8° C. Cells were washed with 15 ml MACS buffer and centrifuge for 7 min at 700 g and 4° C. […] Resuspended cells were counted and plated at density of 200000 cells/well in 100 μl of complete medium. […] Cytokines were then measured using standard Elisa kits. Results are expressed as pg/ml of supernatant of the measured cytokine. […]

[2] = system: IMQ-induced psoriasis in BALB/c mice; assay: Imiquimod-induced psoriasis in mice, ear histopathology; assay type: in vivo, mouse; details: Dexamethasone 0.5 mg/kg IV days 1, 4, 7; for inflammation of the ear (average histopathology grade) vs vehicle-IMQ group: statistically significant
Experimental: Female BALB/cAnNCrl mice (Charles River, age 8 to 10 weeks at study start) have been assigned to the following groups (treatment schedule):
In this experiment, two positive controls have been utilized. Firstly, Prednisolone at 10 mg/kg (vehicle: 1% Hydroxyethylcellulose, 0.25% Polysorbate 80, and 0.05% Antifoam in purified water) has been dosed daily and orally (group “Prednisolone”). Secondly, Dexamethasone has been administered at 0.5 mg/kg (vehicle: sterile 0.9% NaCl) on days 1, 4 and 7 via intravenous route.
On day 8, animals have been sacrificed and the tissue (ear) has been fixed in 10% neutral buffered formalin. For histopathology hematoxylin-and-eosin-stained sections (cross cut) have been prepared and microscopic evaluation on the collected tissues from all animals has been performed. Methods and end-points for histopathology were similarly described in the van der Fits (2009) paper in that inflammation, epidermal hyperplasia, epidermal hyperkeratosis (rather than parakeratosis) were observed and recorded for severity grade, whereby the respective methodology from Van der Fits et al. (The Journal of Immunology 2009, 182, P. 5836-5845) is hereby incorporated by reference. Histopathology grading scores were excluded for either skin or ear in animals with secondary inflammatory processes (full thickness epidermal ulcers). Scores were averaged by group and standard deviation and statistical significance were calculated. […] Formalin-fixed, paraffin embedded skin from the dorsal surface of the mouse (BALB/c) was stained with hematoxylin and eosin (H&E) stain and assessed microscopically. An important difference from the above reference and to describe in more detail the observations of the present study: Hyperkeratosis can be defined specifically as orthokeratotic (no retained nuclei) or parakeratotic (retained nuclei). Either can occur normally in various anatomical locations and depending on species; however, both conditions are well defined in particular disease states. […]

[3] = system: established type II collagen arthritis in rats; details: Dex 0.05 mg/kg IV QD; p<0.05 d3-14

SMILES	CD3/CD28-induced IL-2 release [1]	epidermal hyperkeratosis of the ear, average grades vs vehicle-IMQ group [2]	inflammation of the ear (average histopathology grade) vs vehicle-IMQ group [2]	inflammation of the ear (average histopathology grade) vs vehicle-IMQ group ([2]; listed as Dexamethasone)	daily ankle diameter measurements vs disease controls [3]
Oc1c2ccccc2c2c3c(cccc13)N=N2 [SP600125]	Dose-dependent inhibition	–	–	–	–
C[C@@H]1C[C@H]2[C@@H]3CCC4=CC(=O)C=C[C@]4(C)[C@@]3(F)[C@@H](O)C[C@]2(C)[C@@]1(O)C(=O)CO [dexamethasone, reference compound]	–	minimally decreased average grades	significant differences from the vehicle control group	decreased inflammation of the ear	significantly (p<0.05 by 2-way RM ANOVA) reduced toward normal
